Experimental data as given in article PMC7699745, “The Search for New Anticonvulsants in a Group of (2,5-Dioxopyrrolidin-1-yl)(phenyl)Acetamides with Hybrid Structure—Synthesis and In Vivo/In Vitro Studies” (International Journal of Molecular Sciences, 2020).

What was measured:
[1] = test system: 6 Hz (32 mA) seizures, mice; test: Psychomotor 6 Hz (32 mA) seizure model; format: in vivo; settings: i.p., TD50 rotarod / ED50 6 Hz (32 mA)
MES seizures, mice = test: Maximal electroshock (MES) seizure test; format: in vivo; settings: i.p., TD50 rotarod / ED50 MES

## O=C(Nc1ccccc1)C(c1ccccc1)N1C(=O)CCC1=O (stereo not shown) [Compound 3, 2-(2,5-Dioxopyrrolidin-1-yl)-N,2-diphenylacetamide]
[1]
  PI (TD50/ED50) (6 Hz): >3.2 (6 Hz)

## O=C(Nc1ccccc1F)C(c1ccccc1)N1C(=O)CCC1=O (stereo not shown) [Compound 4, 2-(2,5-Dioxopyrrolidin-1-yl)-N-(2-fluorophenyl)-2-phenylacetamide]
MES seizures, mice
  PI (TD50/ED50) (MES): >4.1 (MES)

## O=C(Nc1ccc(F)cc1)C(c1ccccc1)N1C(=O)CCC1=O (stereo not shown) [Compound 6, 2-(2,5-Dioxopyrrolidin-1-yl)-N-(4-fluorophenyl)-2-phenylacetamide]
[1]
  PI (TD50/ED50) (6 Hz): > 5.2
MES seizures, mice
  PI (TD50/ED50) (MES): > 2.5

## O=C(Nc1cccc(Cl)c1)C(c1ccccc1)N1C(=O)CCC1=O (stereo not shown) [Compound 8, N-(3-Chlorophenyl)-2-(2,5-dioxopyrrolidin-1-yl)-2-phenylacetamide]
MES seizures, mice
  PI (TD50/ED50) (MES): >4.1 (MES)

## O=C(Nc1ccc(Cl)cc1)C(c1ccccc1)N1C(=O)CCC1=O (stereo not shown) [Compound 9, N-(4-Chlorophenyl)-2-(2,5-dioxopyrrolidin-1-yl)-2-phenylacetamide]
MES seizures, mice
  PI (TD50/ED50) (MES): >2.8 (MES)

## O=C(NCc1ccccc1)C(c1ccccc1)N1C(=O)CCC1=O (stereo not shown) [Compound 14, N-Benzyl-2-(2,5-dioxopyrrolidin-1-yl)-2-phenylacetamide]
[1]
  PI (TD50/ED50) (6 Hz): >4.7 (6 Hz)

## O=C(NCc1cccc(Cl)c1)C(c1ccccc1)N1C(=O)CCC1=O (stereo not shown) [Compound 19, N-(3-Chlorobenzyl)-2-(2,5-dioxopyrrolidin-1-yl)-2-phenylacetamide]
[1]
  PI (TD50/ED50) (6 Hz): >3.3 (MES) >3.3 (6 Hz)
MES seizures, mice
  PI (TD50/ED50) (MES): >3.3 (MES) >3.3 (6 Hz)

## O=C(NCc1ccccc1C(F)(F)F)C(c1ccccc1)N1C(=O)CCC1=O (stereo not shown) [Compound 21, 2-(2,5-Dioxopyrrolidin-1-yl)-2-phenyl-N-(2-(trifluoromethyl)benzyl)acetamide]
[1]
  PI (TD50/ED50) (6 Hz): >6.0 (6 Hz)

## O=C(NCc1cccc(C(F)(F)F)c1)C(c1ccccc1)N1C(=O)CCC1=O (stereo not shown) [Compound 22, 2-(2,5-Dioxopyrrolidin-1-yl)-2-phenyl-N-(3-(trifluoromethyl)benzyl)acetamide]
[1]
  PI (TD50/ED50) (6 Hz): >5.2 (6 Hz)

## O=C(NCc1cccc(OC(F)(F)F)c1)C(c1ccccc1)N1C(=O)CCC1=O (stereo not shown) [Compound 24, 2-(2,5-Dioxopyrrolidin-1-yl)-2-phenyl-N-(3-(trifluoromethoxy)benzyl)acetamide]
[1]
  PI (TD50/ED50) (6 Hz): >6.8 (6 Hz)

## O=C(NCCc1ccccc1)C(c1ccccc1)N1C(=O)CCC1=O (stereo not shown) [Compound 25, 2-(2,5-Dioxopyrrolidin-1-yl)-N-phenethyl-2-phenylacetamide]
[1]
  PI (TD50/ED50) (6 Hz): 2.4 (MES) 2.4 (6 Hz)
MES seizures, mice
  PI (TD50/ED50) (MES): 2.4 (MES) 2.4 (6 Hz)

## O=C(NCCc1ccc(Cl)cc1)C(c1ccccc1)N1C(=O)CCC1=O (stereo not shown) [Compound 28, N-(4-Chlorophenethyl)-2-(2,5-dioxopyrrolidin-1-yl)-2-phenylacetamide]
MES seizures, mice
  PI (TD50/ED50) (MES): 2.3

## O=C(NCCc1cccc(C(F)(F)F)c1)C(c1ccccc1)N1C(=O)CCC1=O (stereo not shown) [Compound 29, 2-(2,5-Dioxopyrrolidin-1-yl)-2-phenyl-N-(3-(trifluoromethyl)phenethyl)acetamide]
[1]
  PI (TD50/ED50) (6 Hz): 3.6
MES seizures, mice
  PI (TD50/ED50) (MES): 3.2

## O=C(NCCc1cccc(OC(F)(F)F)c1)C(c1ccccc1)N1C(=O)CCC1=O (stereo not shown) [Compound 30, 2-(2,5-Dioxopyrrolidin-1-yl)-2-phenyl-N-(3-(trifluoromethoxy)phenethyl)acetamide]
[1]
  PI (TD50/ED50) (6 Hz): 4.1
MES seizures, mice
  PI (TD50/ED50) (MES): 3.5

## COC[C@@H](NC(C)=O)C(=O)NCc1ccccc1 [LCS, lacosamide, reference compound]
[1]
  PI (TD50/ED50) (6 Hz): 8.8
MES seizures, mice
  PI (TD50/ED50) (MES): 5.0

## Nc1nnc(-c2cccc(Cl)c2Cl)c(N)n1 [LTG, lamotrigine, reference compound]
[1]
  PI (TD50/ED50) (6 Hz): 7.5
MES seizures, mice
  PI (TD50/ED50) (MES): 15.6

## CCCC(CCC)C(=O)O [VPA, valproic acid, reference compound]
[1]
  PI (TD50/ED50) (6 Hz): 3.3
MES seizures, mice
  PI (TD50/ED50) (MES): 1.7
